# Data from the supplement of paper PMC8728848.
# The list shows a part of the results.
# What was measured:
# Assay in all cases: glycan array binding signal (z-score within array); higher = stronger binding
# Conditions in all cases: glycan notation: IUPAC condensed, linker removed
# [1] = target: Neu5Ac(a2-3)Gal(b1-3)GalNAc
# Procedure, shortened: (§1)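 From the Consortium for Functional Glycomics database, 3228 arrays were curated, keeping only those whose protein sequence was available. Binding is given as a within-array Z-score averaged across arrays sharing a protein sequence and across linkers. Negative Z-scores can be read as non-binding.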
# [2] = target: Neu5Ac(a2-3)Gal(b1-3)GalNAc(b1-3)Gal(a1-4)Gal(b1-4)Glc
# Procedure, shortened: as §1
# [3] = target: Neu5Ac(a2-3)Gal(b1-3)GalNAc(b1-4)[Neu5Ac(a2-3)]Gal(b1-4)Glc
# Procedure, shortened: as §1
# [4] = target: Neu5Ac(a2-3)Gal(b1-3)GalNAc(b1-4)[Neu5Ac(a2-8)Neu5Ac(a2-3)]Gal(b1-4)Glc
# Procedure, shortened: as §1
# [5] = target: Neu5Ac(a2-3)Gal(b1-3)GalNAc6S
# Procedure, shortened: as §1
# [6] = target: Neu5Ac(a2-3)Gal(b1-3)GlcNAc
# Procedure, shortened: as §1
# [7] = target: Neu5Ac(a2-3)Gal(b1-3)GlcNAc(b1-2)Man
# Procedure, shortened: as §1
# [8] = target: Neu5Ac(a2-3)Gal(b1-3)GlcNAc(b1-2)Man(a1-3)[GlcNAc(b1-4)][Neu5Ac(a2-3)Gal(b1-3)GlcNAc(b1-2)Man(a1-6)]Man(b1-4)GlcNAc(b1-4)GlcNAc
# Procedure, shortened: as §1
# [9] = target: Neu5Ac(a2-3)Gal(b1-3)GlcNAc(b1-2)Man(a1-3)[Neu5Ac(a2-3)Gal(b1-3)GlcNAc(b1-2)Man(a1-6)]Man(b1-4)GlcNAc(b1-4)GlcNAc
# Procedure, shortened: as §1
# [10] = target: Neu5Ac(a2-3)Gal(b1-3)GlcNAc(b1-3)Gal(b1-3)GlcNAc
# Procedure, shortened: as §1
# [11] = target: Neu5Ac(a2-3)Gal(b1-3)GlcNAc(b1-3)Gal(b1-4)GlcNAc
# Procedure, shortened: as §1
# [12] = target: Neu5Ac(a2-3)Gal(b1-3)GlcNAc(b1-3)GalNAc
# Procedure, shortened: as §1
# [13] = target: Neu5Ac(a2-3)Gal(b1-3)GlcNAc(b1-4)Gal(b1-4)Glc
# Procedure, shortened: as §1
# [14] = target: Neu5Ac(a2-3)Gal(b1-3)GlcNAc(b1-6)GalNAc
# Procedure, shortened: as §1
# [15] = target: Neu5Ac(a2-3)Gal(b1-3)GlcNAc6S
# Procedure, shortened: as §1
# [16] = target: Neu5Ac(a2-3)Gal(b1-3)[Fuc(a1-4)]GlcNAc
# Procedure, shortened: as §1
# [17] = target: Neu5Ac(a2-3)Gal(b1-3)[Fuc(a1-4)]GlcNAc(b1-3)Gal(b1-3)[Fuc(a1-4)]GlcNAc
# Procedure, shortened: as §1
# [18] = target: Neu5Ac(a2-3)Gal(b1-3)[Fuc(a1-4)]GlcNAc(b1-3)Gal(b1-4)[Fuc(a1-3)]GlcNAc
# Procedure, shortened: as §1
# [19] = target: Neu5Ac(a2-3)Gal(b1-3)[GlcNAc(b1-6)]GalNAc
# Procedure, shortened: as §1
# [20] = target: Neu5Ac(a2-3)Gal(b1-3)[Neu5Ac(a2-6)]GalNAc
# Procedure, shortened: as §1
# [21] = target: Neu5Ac(a2-3)Gal(b1-3)[Neu5Ac(a2-6)]GlcNAc(b1-3)[Fuc(a1-3)[Gal(b1-4)]GlcNAc(b1-6)]Gal(b1-4)Glc
# Procedure, shortened: as §1
# [22] = target: Neu5Ac(a2-3)Gal(b1-3)]Neu5Ac(a2-3)Gal(b1-4)]GlcNAc
# Procedure, shortened: as §1
# Neu5Ac(a2-3)Gal(b1-4)Glc = target: Neu5Ac(a2-3)Gal(b1-4)Glc
# Procedure, shortened: as §1
# [23] = target: Neu5Ac(a2-3)Gal(b1-4)GlcNAc
# Procedure, shortened: as §1
# [24] = target: Neu5Ac(a2-3)Gal(b1-4)GlcNAc(b1-2)Man
# Procedure, shortened: as §1
# [25] = target: Neu5Ac(a2-3)Gal(b1-4)GlcNAc(b1-2)Man(a1-3)[GlcNAc(b1-4)][Neu5Ac(a2-3)Gal(b1-4)GlcNAc(b1-2)Man(a1-6)]Man(b1-4)GlcNAc(b1-4)GlcNAc
# Procedure, shortened: as §1
# [26] = target: Neu5Ac(a2-3)Gal(b1-4)GlcNAc(b1-2)Man(a1-3)[Neu5Ac(a2-3)Gal(b1-4)GlcNAc(b1-2)Man(a1-6)]Man(b1-4)GlcNAc(b1-4)GlcNAc
# Procedure, shortened: as §1
# [27] = target: Neu5Ac(a2-3)Gal(b1-4)GlcNAc(b1-2)Man(a1-3)[Neu5Ac(a2-3)Gal(b1-4)GlcNAc(b1-2)Man(a1-6)]Man(b1-4)GlcNAc(b1-4)[Fuc(a1-6)]GlcNAc
# Procedure, shortened: as §1
# [28] = target: Neu5Ac(a2-3)Gal(b1-4)GlcNAc(b1-2)Man(a1-3)[Neu5Ac(a2-6)Gal(b1-4)GlcNAc(b1-2)Man(a1-6)]Man(b1-4)GlcNAc(b1-4)GlcNAc
# Procedure, shortened: as §1
# [29] = target: Neu5Ac(a2-3)Gal(b1-4)GlcNAc(b1-2)[Neu5Ac(a2-3)Gal(b1-4)GlcNAc(b1-4)]Man(a1-3)[GlcNAc(b1-4)][Neu5Ac(a2-3)Gal(b1-4)GlcNAc(b1-2)[Neu5Ac(a2-3)Gal(b1-4)GlcNAc(b1-6)]Man(a1-6)]Man(b1-4)GlcNAc(b1-4)GlcNAc
# Procedure, shortened: as §1
# [30] = target: Neu5Ac(a2-3)Gal(b1-4)GlcNAc(b1-2)[Neu5Ac(a2-3)Gal(b1-4)GlcNAc(b1-4)]Man(a1-3)[GlcNAc(b1-4)][Neu5Ac(a2-3)Gal(b1-4)GlcNAc(b1-4)Man(a1-6)]Man(b1-4)GlcNAc(b1-4)GlcNAc
# Procedure, shortened: as §1
# [31] = target: Neu5Ac(a2-3)Gal(b1-4)GlcNAc(b1-2)[Neu5Ac(a2-3)Gal(b1-4)GlcNAc(b1-6)]Man(a1-6)[Neu5Ac(a2-3)Gal(b1-4)GlcNAc(b1-2)Man(a1-3)]Man(b1-4)GlcNAc(b1-4)GlcNAc
# Procedure, shortened: as §1
# [32] = target: Neu5Ac(a2-3)Gal(b1-4)GlcNAc(b1-2)[Neu5Ac(a2-3)Gal(b1-4)GlcNAc(b1-6)]Man(a1-6)[Neu5Ac(a2-3)Gal(b1-4)GlcNAc(b1-2)Man(a1-3)][GlcNAc(b1-4)]Man(b1-4)GlcNAc(b1-4)GlcNAc
# Procedure, shortened: as §1
# [33] = target: Neu5Ac(a2-3)Gal(b1-4)GlcNAc(b1-3)Gal
# Procedure, shortened: as §1
# [34] = target: Neu5Ac(a2-3)Gal(b1-4)GlcNAc(b1-3)Gal(b1-3)GlcNAc
# Procedure, shortened: as §1
# [35] = target: Neu5Ac(a2-3)Gal(b1-4)GlcNAc(b1-3)Gal(b1-4)GlcNAc
# Procedure, shortened: as §1
# [36] = target: Neu5Ac(a2-3)Gal(b1-4)GlcNAc(b1-3)Gal(b1-4)GlcNAc(b1-2)Man(a1-3)[Neu5Ac(a2-3)Gal(b1-4)GlcNAc(b1-3)Gal(b1-4)GlcNAc(b1-2)Man(a1-6)]Man(b1-4)GlcNAc(b1-4)GlcNAc
# Procedure, shortened: as §1
# [37] = target: Neu5Ac(a2-3)Gal(b1-4)GlcNAc(b1-3)Gal(b1-4)GlcNAc(b1-3)Gal(b1-4)GlcNAc
# Procedure, shortened: as §1
# [38] = target: Neu5Ac(a2-3)Gal(b1-4)GlcNAc(b1-3)Gal(b1-4)GlcNAc(b1-3)Gal(b1-4)GlcNAc(b1-2)Man(a1-3)[Neu5Ac(a2-3)Gal(b1-4)GlcNAc(b1-3)Gal(b1-4)GlcNAc(b1-3)Gal(b1-4)GlcNAc(b1-2)Man(a1-6)]GalNAc
# Procedure, shortened: as §1
# [39] = target: Neu5Ac(a2-3)Gal(b1-4)GlcNAc(b1-3)Gal(b1-4)GlcNAc(b1-3)GalNAc
# Procedure, shortened: as §1
# [40] = target: Neu5Ac(a2-3)Gal(b1-4)GlcNAc(b1-3)Gal(b1-4)GlcNAc(b1-3)[Neu5Ac(a2-3)Gal(b1-4)GlcNAc(b1-3)Gal(b1-4)GlcNAc(b1-6)]GalNAc
# Procedure, shortened: as §1
# [41] = target: Neu5Ac(a2-3)Gal(b1-4)GlcNAc(b1-3)Gal(b1-4)GlcNAc(b1-6)[Gal(b1-3)]GalNAc
# Procedure, shortened: as §1
# [42] = target: Neu5Ac(a2-3)Gal(b1-4)GlcNAc(b1-3)Gal(b1-4)[Fuc(a1-3)]GlcNAc
# Procedure, shortened: as §1
# [43] = target: Neu5Ac(a2-3)Gal(b1-4)GlcNAc(b1-3)GalNAc
# Procedure, shortened: as §1
# [44] = target: Neu5Ac(a2-3)Gal(b1-4)GlcNAc(b1-3)[Neu5Ac(a2-3)Gal(b1-4)GlcNAc(b1-6)]GalNAc
# Procedure, shortened: as §1
binder,measurement,setting,value
EULS2 M3 (Oryza sativa) (protein) MVYCRANPNYAMTARNGAVVLAPANPKDEYQHWIKDMRWSTSIKDEEGYPAFALVNKATGQAIKHSLGQSHPVRLVPYNPEVMDESVLWTESRDVGNGFRCIRMVNNIYLNFDAFHGDKYHGGVRDGTDIVLWKLCEGDSLRWKIQPYYILEQKLISEEDLNSAVDHHHHHH,glycan array binding signal (z-score),[1],0.05
same,glycan array binding signal (z-score),[2],0.635
same,glycan array binding signal (z-score),[3],-0.272
same,glycan array binding signal (z-score),[4],-0.176
same,glycan array binding signal (z-score),[5],0.579
same,glycan array binding signal (z-score),[6],-0.871
same,glycan array binding signal (z-score),[7],-0.241
same,glycan array binding signal (z-score),[8],0.433
same,glycan array binding signal (z-score),[9],0.519
same,glycan array binding signal (z-score),[10],-0.139
same,glycan array binding signal (z-score),[11],-0.11
same,glycan array binding signal (z-score),[12],-0.156
same,glycan array binding signal (z-score),[13],-0.312
same,glycan array binding signal (z-score),[14],-0.549
same,glycan array binding signal (z-score),[15],-0.066
same,glycan array binding signal (z-score),[16],-0.194
same,glycan array binding signal (z-score),[17],-0.531
same,glycan array binding signal (z-score),[18],-0.194
same,glycan array binding signal (z-score),[19],-0.108
same,glycan array binding signal (z-score),[20],-0.579
same,glycan array binding signal (z-score),[21],-0.651
same,glycan array binding signal (z-score),[22],-0.284
same,glycan array binding signal (z-score),Neu5Ac(a2-3)Gal(b1-4)Glc,0.101
same,glycan array binding signal (z-score),[23],-0.262
same,glycan array binding signal (z-score),[24],-0.09
same,glycan array binding signal (z-score),[25],-0.414
same,glycan array binding signal (z-score),[26],-0.723
same,glycan array binding signal (z-score),[27],-0.844
same,glycan array binding signal (z-score),[28],-0.584
same,glycan array binding signal (z-score),[29],-0.102
same,glycan array binding signal (z-score),[30],-0.265
same,glycan array binding signal (z-score),[31],-0.063
same,glycan array binding signal (z-score),[32],0.415
same,glycan array binding signal (z-score),[33],-0.143
same,glycan array binding signal (z-score),[34],-0.422
same,glycan array binding signal (z-score),[35],-0.786
same,glycan array binding signal (z-score),[36],0.561
same,glycan array binding signal (z-score),[37],-1.62
same,glycan array binding signal (z-score),[38],0.667
same,glycan array binding signal (z-score),[39],-0.368
same,glycan array binding signal (z-score),[40],-0.135
same,glycan array binding signal (z-score),[41],-0.345
same,glycan array binding signal (z-score),[42],-0.416
same,glycan array binding signal (z-score),[43],-0.286
same,glycan array binding signal (z-score),[44],0.127

# 2 entries from above, with tabs.
binder	measurement	setting	value
EULS2 M3 (Oryza sativa) (protein) MVYCRANPNYAMTARNGAVVLAPANPKDEYQHWIKDMRWSTSIKDEEGYPAFALVNKATGQAIKHSLGQSHPVRLVPYNPEVMDESVLWTESRDVGNGFRCIRMVNNIYLNFDAFHGDKYHGGVRDGTDIVLWKLCEGDSLRWKIQPYYILEQKLISEEDLNSAVDHHHHHH	glycan array binding signal (z-score)	[35]	-0.786
same	glycan array binding signal (z-score)	[38]	0.667
